Data as given in patent US4053481A, “2-Aryl-3,4-diphenylisoxazolin-5-ones” (G. D. Searle & Co., priority 1976, dated 1977).
At least one compound was matched to its structure with a doubt left. Some compounds share one wording; it may come from a single statement.

Assays:
serum cholesterol = assay: Test for capacity to counteract increased serum cholesterol induced in rats by ingestion of propylthiouracil; format: in vivo, male rats; conditions: 10.0 mg/kg of body weight daily, orally or subcutaneously, 10 days; significantly lower than control, P < 0.05 Wilcoxon Rank Sum
[1] = test system: microsomal-cytosol fraction; assay: % inhibition of C14-acetate incorporation into lipid fractions (fatty acid and cholesterol biosynthesis) in rat liver microsomal-cytosol fraction; format: biochemical, Male Charles River rats; conditions: 0.001 M; 37° C., 90 minutes
Method: The instant compounds are useful as pharmacological agents as evidenced by their ability to reduce serum triglyceride and cholesterol levels as determined in the following assay:
Male Charles River rats (160-200 g.), having had free access to food and water, are administered a standard diet containing 2% DEAE - cellulose (Reeve Angel anion exchange resin) for 5 days. The rats then are sacrificed and their livers removed immediately. The livers are homogenized in a medium consisting of 0.1 M potassium phosphate, pH 7.4, 0.004 m MgCl2 and 0.03 M nicotinamide, and the microsomalcytosol fraction obtained by centrifugation. 2.0 Ml. of the microsomal-cytosol fraction is incubated, at 37° C. for 90 minutes for fatty acid measurements and for measurement of cholosterol biosynthesis, in a standard assay mixture containing 10 micromoles of sodium acetate containing 0.1 microcuries of 2-C^14 -acetate, 2 micromoles nicotinamide adenine dinucleotide, 2 micromoles nicotinamide adenine dinucleotide phosphate, and 20 micromoles glucose-6-phosphate, and test compound, initially at 0.001 M, is added. All assays are run in duplicate with the assay to which no test compound is added serving as control. Heat inactivated homogenate serves as blank for both control and test systems.
Reaction rate is determined per unit of time by the amount of C^14 label incorporated into the lipid fraction from the radioactive acetate. Results are reported as % inhibition (i.e. (Difference in Reaction Rate between Control and Test Compound/Reaction Rate for Control) × 100).
Typical results are shown below in Table I for the product of Example 2, referred to as Compound I. Also represented are the results for Atromid S® , a brand of clofibrate, marketed as a hypocholesterolemic agent.

Row | Compound | hypocholesterolemic response (serum cholesterol) | % Inhibition, Fatty Acid Fraction [1] [%] | % Inhibition, Fraction (first column, qualifier not given) [1] [%] | % Inhibition, Non-Lipid Fraction [1] [%]
1 | Cc1ccccc1-n1oc(=O)c(-c2ccccc2)c1-c1ccccc1 [Example 1, 2-(o-tolyl)-3,4-diphenylisoxazolin-5-one] | produce the described hypocholesterolemic response | – | – | –
2 | O=c1on(-c2ccccc2Cl)c(-c2ccccc2)c1-c1ccccc1 [Example 2, 2-(o-chlorophenyl)-3,4-diphenylisoxazolin-5-one] | produce the described hypocholesterolemic response | 38 | 33 | 53
3 | Cc1cc(Br)ccc1-n1oc(=O)c(-c2ccccc2)c1-c1ccccc1 [Example 3, 2-(4-bromo-2-tolyl)-3,4-diphenylisoxazolin-5-one] | produce the described hypocholesterolemic response | – | – | –
4 | Cc1cc(Cl)ccc1-n1oc(=O)c(-c2ccccc2)c1-c1ccccc1 [Example 4, 2-(4-chloro-2-tolyl)-3,4-diphenylisoxazolin-5-one] | produce the described hypocholesterolemic response | – | – | –
